Some of the results follow.
Legend:
Assay in all cases: log2 fold change, soluble protein after heating vs DMSO (PISA); higher = thermal stabilisation; K562 lysate, 10 uM; active = over 0.2 and 3.5 SD of the protein, either way, in both replicates (recomputed)
[1] = compound: C1=CC=C(C=C1)[C@H](COC2=CC3=C(C=C2)NC(=O)N3)NC(=O)C4=CC=CN(C4=O)CC5=CC(=C(C=C5)F)F
Method in brief: (§1)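 A 30 min treatment with 10 μM compound was applied to crude K562 extract at 1 mg/mL protein in PBS pH 7.4 with 1 mM MgCl2. Heating for 3 min spanned 48°C-58°C, after which aliquots were pooled, adjusted to 0.5% NP-40 at 4°C and spun at 21,000xg for 90 min. TMTpro 16plex LC-MS/MS of the supernatant, with channel sums equalised, gave values recorded as log-two fold change in thermal stability against solvent controls, from duplicates.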

The chains behind the UniProt entries cited, without tags or fusion partners. Where a name states a change or a piece, a line headed by the entry shows the natural chain unless it says otherwise.
UniProt Q5TA31: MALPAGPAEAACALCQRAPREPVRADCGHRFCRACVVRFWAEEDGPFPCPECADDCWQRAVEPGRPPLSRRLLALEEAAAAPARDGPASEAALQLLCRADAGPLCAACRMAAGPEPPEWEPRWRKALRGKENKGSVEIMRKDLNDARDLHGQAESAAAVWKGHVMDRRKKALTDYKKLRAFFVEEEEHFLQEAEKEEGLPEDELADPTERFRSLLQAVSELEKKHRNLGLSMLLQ
UniProt Q6ZS17: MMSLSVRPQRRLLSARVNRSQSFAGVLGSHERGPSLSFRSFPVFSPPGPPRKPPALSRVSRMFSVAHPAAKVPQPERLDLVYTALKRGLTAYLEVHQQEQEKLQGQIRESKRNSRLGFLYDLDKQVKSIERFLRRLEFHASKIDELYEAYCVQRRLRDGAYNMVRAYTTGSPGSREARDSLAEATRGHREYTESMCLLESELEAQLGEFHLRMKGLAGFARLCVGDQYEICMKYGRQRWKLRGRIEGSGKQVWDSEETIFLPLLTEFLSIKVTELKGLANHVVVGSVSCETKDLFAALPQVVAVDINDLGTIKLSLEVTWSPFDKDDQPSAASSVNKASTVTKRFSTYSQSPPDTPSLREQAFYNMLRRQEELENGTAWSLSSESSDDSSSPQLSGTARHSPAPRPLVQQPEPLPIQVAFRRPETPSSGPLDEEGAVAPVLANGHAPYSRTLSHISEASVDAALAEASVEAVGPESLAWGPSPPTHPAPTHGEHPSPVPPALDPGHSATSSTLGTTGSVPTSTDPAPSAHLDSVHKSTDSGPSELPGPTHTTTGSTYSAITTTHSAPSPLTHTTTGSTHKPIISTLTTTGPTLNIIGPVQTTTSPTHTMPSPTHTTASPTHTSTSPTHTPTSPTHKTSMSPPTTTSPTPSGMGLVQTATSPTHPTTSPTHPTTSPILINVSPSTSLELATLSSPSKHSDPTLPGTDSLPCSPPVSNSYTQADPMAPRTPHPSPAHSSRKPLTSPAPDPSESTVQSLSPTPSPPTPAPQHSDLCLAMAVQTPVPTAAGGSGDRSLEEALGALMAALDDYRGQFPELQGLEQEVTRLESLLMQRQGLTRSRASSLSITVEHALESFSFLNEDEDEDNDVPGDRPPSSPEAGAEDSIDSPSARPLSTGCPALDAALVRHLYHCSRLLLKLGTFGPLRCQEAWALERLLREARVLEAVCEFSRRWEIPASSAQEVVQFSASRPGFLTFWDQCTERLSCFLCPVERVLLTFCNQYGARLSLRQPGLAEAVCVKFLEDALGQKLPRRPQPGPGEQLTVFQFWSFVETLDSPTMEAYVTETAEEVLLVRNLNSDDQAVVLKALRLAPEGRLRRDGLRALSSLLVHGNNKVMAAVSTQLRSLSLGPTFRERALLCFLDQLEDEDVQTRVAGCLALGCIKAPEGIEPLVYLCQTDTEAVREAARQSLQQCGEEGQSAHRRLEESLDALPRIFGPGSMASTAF
UniProt Q6NUQ1: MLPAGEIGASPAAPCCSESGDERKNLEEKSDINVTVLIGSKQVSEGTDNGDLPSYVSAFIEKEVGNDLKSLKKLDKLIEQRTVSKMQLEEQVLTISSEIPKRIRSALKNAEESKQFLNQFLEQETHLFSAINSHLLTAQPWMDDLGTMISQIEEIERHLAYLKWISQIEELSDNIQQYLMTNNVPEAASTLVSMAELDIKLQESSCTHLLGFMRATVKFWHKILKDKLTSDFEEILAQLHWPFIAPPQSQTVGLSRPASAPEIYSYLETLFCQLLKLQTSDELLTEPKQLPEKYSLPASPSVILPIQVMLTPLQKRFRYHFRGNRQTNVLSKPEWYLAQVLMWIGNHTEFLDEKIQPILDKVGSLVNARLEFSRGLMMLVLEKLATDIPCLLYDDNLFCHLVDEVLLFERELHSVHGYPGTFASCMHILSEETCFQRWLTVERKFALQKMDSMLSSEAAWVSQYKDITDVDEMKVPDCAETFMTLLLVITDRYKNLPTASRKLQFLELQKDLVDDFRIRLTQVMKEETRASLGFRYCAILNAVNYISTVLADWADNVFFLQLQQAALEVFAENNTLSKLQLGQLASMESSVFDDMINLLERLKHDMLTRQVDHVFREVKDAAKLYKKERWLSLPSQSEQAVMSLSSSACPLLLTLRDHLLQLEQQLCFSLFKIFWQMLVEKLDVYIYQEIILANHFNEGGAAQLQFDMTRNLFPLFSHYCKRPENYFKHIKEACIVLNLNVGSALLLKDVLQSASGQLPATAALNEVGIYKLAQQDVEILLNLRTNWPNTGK
UniProt Q9BWH6: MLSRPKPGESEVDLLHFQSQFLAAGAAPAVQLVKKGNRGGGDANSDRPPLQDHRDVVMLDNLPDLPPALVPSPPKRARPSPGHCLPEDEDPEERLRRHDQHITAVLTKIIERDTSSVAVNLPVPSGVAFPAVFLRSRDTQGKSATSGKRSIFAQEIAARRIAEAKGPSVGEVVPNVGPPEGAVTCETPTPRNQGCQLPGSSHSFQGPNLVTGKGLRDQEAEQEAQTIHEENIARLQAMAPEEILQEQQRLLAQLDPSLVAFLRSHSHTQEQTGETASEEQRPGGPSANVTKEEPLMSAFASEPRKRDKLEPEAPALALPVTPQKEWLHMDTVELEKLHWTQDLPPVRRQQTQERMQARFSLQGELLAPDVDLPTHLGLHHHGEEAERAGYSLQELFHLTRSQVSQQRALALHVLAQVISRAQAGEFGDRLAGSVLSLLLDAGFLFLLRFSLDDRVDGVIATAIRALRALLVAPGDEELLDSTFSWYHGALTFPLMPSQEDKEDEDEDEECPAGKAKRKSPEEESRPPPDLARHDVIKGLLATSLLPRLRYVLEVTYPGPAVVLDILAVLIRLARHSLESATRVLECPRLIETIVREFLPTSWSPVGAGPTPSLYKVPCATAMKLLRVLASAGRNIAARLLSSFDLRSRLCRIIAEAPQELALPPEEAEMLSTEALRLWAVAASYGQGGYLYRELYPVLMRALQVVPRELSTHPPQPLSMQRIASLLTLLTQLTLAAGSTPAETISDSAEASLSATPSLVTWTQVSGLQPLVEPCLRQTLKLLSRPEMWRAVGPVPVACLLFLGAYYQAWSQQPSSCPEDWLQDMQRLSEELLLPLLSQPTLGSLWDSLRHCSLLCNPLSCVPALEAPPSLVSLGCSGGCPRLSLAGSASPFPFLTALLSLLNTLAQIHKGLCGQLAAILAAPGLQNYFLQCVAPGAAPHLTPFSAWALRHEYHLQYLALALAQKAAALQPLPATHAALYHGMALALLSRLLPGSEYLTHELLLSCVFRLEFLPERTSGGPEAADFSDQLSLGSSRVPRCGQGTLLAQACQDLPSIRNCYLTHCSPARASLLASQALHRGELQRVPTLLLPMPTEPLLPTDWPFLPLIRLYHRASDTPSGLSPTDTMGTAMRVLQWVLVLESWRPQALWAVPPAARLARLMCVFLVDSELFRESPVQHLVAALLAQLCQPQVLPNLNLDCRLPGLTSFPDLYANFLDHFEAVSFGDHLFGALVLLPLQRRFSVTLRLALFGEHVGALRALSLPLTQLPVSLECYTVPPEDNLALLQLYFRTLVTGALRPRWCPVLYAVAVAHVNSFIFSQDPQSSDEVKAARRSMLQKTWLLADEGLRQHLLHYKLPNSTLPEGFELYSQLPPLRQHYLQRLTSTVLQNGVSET
UniProt Q96K19: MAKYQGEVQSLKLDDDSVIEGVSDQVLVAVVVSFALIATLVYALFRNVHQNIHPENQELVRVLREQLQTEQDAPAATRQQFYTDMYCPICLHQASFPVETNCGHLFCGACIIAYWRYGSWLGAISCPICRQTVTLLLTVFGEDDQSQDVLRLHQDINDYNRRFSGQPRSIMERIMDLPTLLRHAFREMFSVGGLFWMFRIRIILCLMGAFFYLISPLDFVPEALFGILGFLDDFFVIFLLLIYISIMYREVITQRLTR
UniProt Q9BRS2: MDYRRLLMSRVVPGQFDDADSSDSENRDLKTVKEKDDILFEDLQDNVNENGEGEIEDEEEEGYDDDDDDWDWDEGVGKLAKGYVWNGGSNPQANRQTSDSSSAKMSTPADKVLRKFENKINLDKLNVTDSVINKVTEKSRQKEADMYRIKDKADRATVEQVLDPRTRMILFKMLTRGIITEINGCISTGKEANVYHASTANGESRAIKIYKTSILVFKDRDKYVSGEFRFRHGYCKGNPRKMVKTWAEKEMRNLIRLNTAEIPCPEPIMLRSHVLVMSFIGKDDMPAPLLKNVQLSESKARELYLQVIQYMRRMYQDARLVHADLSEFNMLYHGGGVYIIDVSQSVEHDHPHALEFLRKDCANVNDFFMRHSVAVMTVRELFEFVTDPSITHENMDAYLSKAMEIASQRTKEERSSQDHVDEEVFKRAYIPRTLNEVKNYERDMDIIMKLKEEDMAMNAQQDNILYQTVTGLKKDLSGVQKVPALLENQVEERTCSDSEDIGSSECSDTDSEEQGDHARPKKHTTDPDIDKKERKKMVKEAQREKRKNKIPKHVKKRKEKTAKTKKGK
UniProt O75150, whole entry, looked up: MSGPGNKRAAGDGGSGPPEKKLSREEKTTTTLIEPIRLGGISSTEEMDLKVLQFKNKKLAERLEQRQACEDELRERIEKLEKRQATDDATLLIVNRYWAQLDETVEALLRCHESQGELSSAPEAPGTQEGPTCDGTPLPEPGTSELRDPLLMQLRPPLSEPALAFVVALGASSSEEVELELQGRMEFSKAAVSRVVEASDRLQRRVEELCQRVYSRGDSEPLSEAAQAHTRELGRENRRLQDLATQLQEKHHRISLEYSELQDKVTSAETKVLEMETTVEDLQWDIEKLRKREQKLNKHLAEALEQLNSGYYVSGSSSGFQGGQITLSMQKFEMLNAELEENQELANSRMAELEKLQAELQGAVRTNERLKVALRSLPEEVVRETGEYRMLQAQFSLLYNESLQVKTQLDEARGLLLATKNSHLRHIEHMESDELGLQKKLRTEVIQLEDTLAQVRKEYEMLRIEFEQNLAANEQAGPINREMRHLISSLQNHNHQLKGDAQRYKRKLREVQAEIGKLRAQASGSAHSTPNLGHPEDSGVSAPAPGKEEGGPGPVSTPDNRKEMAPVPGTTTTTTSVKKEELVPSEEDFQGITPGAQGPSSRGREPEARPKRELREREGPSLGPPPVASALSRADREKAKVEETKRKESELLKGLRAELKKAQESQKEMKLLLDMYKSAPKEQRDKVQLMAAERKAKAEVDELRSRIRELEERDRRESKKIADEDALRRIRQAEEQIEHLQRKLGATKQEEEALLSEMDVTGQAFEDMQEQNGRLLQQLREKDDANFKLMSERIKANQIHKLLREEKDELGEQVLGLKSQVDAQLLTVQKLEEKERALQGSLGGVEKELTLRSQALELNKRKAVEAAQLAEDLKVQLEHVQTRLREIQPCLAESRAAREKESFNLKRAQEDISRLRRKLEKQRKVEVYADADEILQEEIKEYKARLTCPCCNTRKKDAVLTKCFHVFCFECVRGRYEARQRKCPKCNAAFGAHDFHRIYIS
UniProt Q8IXW5, whole entry, looked up: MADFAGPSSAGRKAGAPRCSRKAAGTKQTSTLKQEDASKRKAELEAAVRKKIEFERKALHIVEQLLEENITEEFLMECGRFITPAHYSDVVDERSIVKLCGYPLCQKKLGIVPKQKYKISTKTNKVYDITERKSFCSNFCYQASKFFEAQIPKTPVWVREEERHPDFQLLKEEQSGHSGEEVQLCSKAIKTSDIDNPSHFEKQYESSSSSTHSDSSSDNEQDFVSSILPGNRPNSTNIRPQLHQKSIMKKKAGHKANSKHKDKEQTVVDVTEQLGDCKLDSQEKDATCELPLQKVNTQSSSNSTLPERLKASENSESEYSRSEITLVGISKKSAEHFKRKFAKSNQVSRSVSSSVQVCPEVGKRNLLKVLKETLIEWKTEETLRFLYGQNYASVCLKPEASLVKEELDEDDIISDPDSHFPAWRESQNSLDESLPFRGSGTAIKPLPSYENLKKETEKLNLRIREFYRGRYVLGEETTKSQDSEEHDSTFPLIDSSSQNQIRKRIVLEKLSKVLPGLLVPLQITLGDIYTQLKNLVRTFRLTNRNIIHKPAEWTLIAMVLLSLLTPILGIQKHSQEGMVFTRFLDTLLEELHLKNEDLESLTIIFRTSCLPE
UniProt Q5EBL4: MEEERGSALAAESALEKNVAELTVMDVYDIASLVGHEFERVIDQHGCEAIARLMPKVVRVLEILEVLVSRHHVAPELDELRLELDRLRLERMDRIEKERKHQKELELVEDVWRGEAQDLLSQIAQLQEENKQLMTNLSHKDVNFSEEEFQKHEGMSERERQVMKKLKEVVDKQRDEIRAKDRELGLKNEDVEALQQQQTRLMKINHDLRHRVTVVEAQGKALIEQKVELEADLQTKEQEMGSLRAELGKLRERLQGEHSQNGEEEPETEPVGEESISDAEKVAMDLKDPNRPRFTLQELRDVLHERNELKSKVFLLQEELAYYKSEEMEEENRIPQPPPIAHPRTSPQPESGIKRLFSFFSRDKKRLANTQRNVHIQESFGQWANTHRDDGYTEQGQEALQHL

[2] = compound: CC1=C(SC2=C1C(=N[C@H](C3=NN=C(N32)C)CC(=O)N)C4=CC=C(C=C4)Cl)C
Method in brief: as §1

[3] = compound: CC1=C2C(=CC=C1)N=C(N(C2=O)C3=CC=CC=C3C)CN4C=NC5=C(N=CN=C54)N
Method in brief: as §1

[4] = compound: Cc1sc2c(c1C)C(c1ccc(Cl)cc1)=N[C@@H](CC(=O)OC(C)(C)C)c1nnc(C)n1-2
Method in brief: as §1

[5] = compound: c1ccc([C@@H]2C[C@H]2NC2CCNCC2)cc1
Method in brief: as §1

Measured: log2 fold change

RNF187 (UniProt Q5TA31)
inactive: [1] -0.015 | [2] -0.023 | [3] 0.015 | [4] -0.083 | [5] 0

RILP (UniProt Q96NA2)
inactive: [1] 0.029 | [2] -0.004 | [3] -0.004 | [4] 0 | [5] 0.007

RIPOR1 isoform 4 (UniProt Q6ZS17)
inactive: [1] -0.002 | [2] -0.028 | [3] 0.002 | [4] 0.092 | [5] 0.072

RINT1 (UniProt Q6NUQ1)
inactive: [1] -0.021 | [2] -0.008 | [3] 0.019 | [4] -0.008 | [5] 0.026

RNH1 (UniProt P13489)
inactive: [1] -0.05 | [2] -0.071 | [3] -0.006 | [4] 0.025 | [5] -0.18

RPL19 (UniProt P84098)
inactive: [1] 0.04 | [2] -0.022 | [3] -0.026 | [4] 0.052 | [5] 0.019

RPAP1 (UniProt Q9BWH6)
inactive: [1] -0.006 | [2] 0.018 | [3] 0.015 | [4] -0.038 | [5] 0.028

RPL15, A0A2R8Y738
inactive: [1] -0.211 | [2] 0.026

Retrieved one by one from above, 2 records:
RNF187 (UniProt Q5TA31)
inactive: [1] -0.015 | [2] -0.023 | [3] 0.015 | [4] -0.083 | [5] 0

RPL19 (UniProt P84098)
inactive: [1] 0.04 | [2] -0.022 | [3] -0.026 | [4] 0.052 | [5] 0.019

Next part

RPL22 (UniProt P35268)
inactive: [1] -0.096 | [2] 0.061 | [3] 0.007 | [4] -0.001 | [5] 0.02

RPL18 (UniProt Q07020)
inactive: [1] 0.049 | [2] -0.004 | [3] 0.016 | [4] -0.013 | [5] -0.015

RMI1 (UniProt Q9H9A7)
inactive: [1] 0.141 | [2] -0.155 | [3] -0.131 | [4] -0.083 | [5] 0.011

RNF170 (UniProt Q96K19)
inactive: [1] -0.097 | [2] -0.115 | [3] 0.149 | [4] 0.285 | [5] -0.026

RPL29 (UniProt P47914)
inactive: [1] 0.006 | [2] -0.021 | [3] -0.013 | [4] 0.146 | [5] 0.074

RPGR (UniProt Q92834)
inactive: [1] -0.116 | [2] -0.146

RP2 (UniProt O75695)
inactive: [1] -0.002 | [2] -0.007 | [3] -0.093 | [4] -0.02 | [5] 0.079

RPL10 (UniProt P27635)
inactive: [1] -0.019 | [2] -0.005 | [3] -0.011 | [4] 0.027 | [5] 0.094

RIOK1 (UniProt Q9BRS2)
inactive: [1] -0.026 | [2] -0.031 | [3] -0.003 | [4] -0.006 | [5] -0.015

RNPEP (UniProt Q9H4A4)
inactive: [1] 0.026 | [2] -0.023 | [3] -0.002 | [4] 0.031 | [5] 0.003

RPL15 (UniProt P61313)
inactive: [1] 0.039 | [2] -0.019 | [3] -0.001 | [4] -0.007 | [5] 0.006

RNMT isoform 2 (UniProt O43148)
inactive: [1] 0 | [2] -0.028 | [3] -0.001 | [4] -0.032 | [5] -0.04

RNF40 (UniProt O75150)
inactive: [1] 0 | [2] -0.02 | [3] 0.007 | [4] -0.003 | [5] 0.041

RPAP2 (UniProt Q8IXW5)
inactive: [1] 0.031 | [2] -0.005 | [3] 0.048 | [4] -0.126 | [5] -0.07

RLIM (UniProt Q9NVW2)
inactive: [1] 0.049 | [2] 0.135

RNF113A (UniProt O15541)
inactive: [1] 0.047 | [2] -0.022 | [3] -0.018 | [4] -0.065 | [5] -0.066

RILPL1 (UniProt Q5EBL4)
inactive: [1] 0.01 | [2] 0.038 | [3] 0.008 | [4] 0.004 | [5] 0.004

RHOC (UniProt P08134)
inactive: [1] -0.003 | [2] 0.043 | [3] -0.012 | [4] 0.08 | [5] -0.064

Source: the supplement of paper PMC10849652
